In the supplement of paper PMC10663445:
Counter-ions that a name gives are not always drawn. ± gives the standard deviation of the averaged measurements. This is one part of the list. Many values rest on one well or one pass, so single values are uncertain.

Each compound was assayed on hsa-miR-132-3p (assay: miR-132-3p level in NGN2-iNs after compound treatment (TMM-normalised, ComBat batch-corrected) (batch-corrected normalised expression (arbitrary units)); higher = higher miR-132-3p expression). Conditions: 10 µM; 24 h; human iPSC-derived NGN2 neurons (BR43).

Row | SMILES | miR-132-3p level in NGN2-iNs
1 | O=C(O)CCCCC(CCSCc1ccccc1)SCc1ccccc1 (stereo not drawn) | -0.743
2 | C[C@H]1O[C@@H](n2cc(F)c(=O)[nH]c2=O)[C@H](O)[C@@H]1O [Doxifluridine] | -0.763
3 | CC(C)(C)c1nc(-c2cccc(NS(=O)(=O)c3c(F)cccc3F)c2F)c(-c2ccnc(N)n2)s1 | 2.22
4 | Cc1c(C(=O)Nc2ccc(N3CCC(N4CCOCC4)CC3)c(C#N)c2)cnn1-c1ccc(Cl)cc1 | 0.672
5 | Nc1c(CC(=O)O)cccc1C(=O)c1ccc(Br)cc1 [Bromfenac Sodium] | -0.984
6 | COc1cccc(Nc2c(C(N)=O)cnc3c(C)cc(S(=O)(=O)c4cccc(C(=O)N(C)C)c4)cc23)c1 | 0.314
7 | C/C(=C\C(=O)Nc1ccccc1C(=O)O)c1ccc2ccccc2c1 | -0.253
8 | Cc1cc(Cl)ccc1OCCCC(=O)NO [Droxinostat] | -2.72
9 | C[C@H](Cc1cc2c(c(C(N)=O)c1)N(CCCO)CC2)NCCOc1ccccc1OCC(F)(F)F [Silodosin] | 1.57
10 | O=C(O)C1=CO[C@@H](O[C@@H]2O[C@H](CO)[C@@H](O)[C@H](O)[C@H]2O)[C@@H]2C(CO)=CC[C@H]12 [Geniposidic acid] | 1.26
11 | COc1c(C)c2c(c(O)c1C/C=C(\C)CCC(=O)O)C(=O)OC2 [Mycophenolic acid] | -0.647
12 | NS(=O)(=O)c1cc(Cl)c(Cl)c(S(N)(=O)=O)c1 [Dichlorphenamide (Diclofenamide)] | -0.943
13 | CCCC1O[C@@H]2C[C@H]3[C@@H]4CCC5=CC(=O)C=C[C@]5(C)[C@H]4[C@@H](O)C[C@]3(C)[C@]2(C(=O)CO)O1 (stereo partly drawn) [Budesonide] | 1.47
14 | COc1cc(C(C)=O)ccc1OCCCN1CCC(c2noc3cc(F)ccc23)CC1 [Iloperidone] | 0.546
15 | CCOC(=O)[C@H](CCc1ccccc1)N[C@H]1CCCN2CCC[C@@H](C(=O)O)N2C1=O [Cilazapril Monohydrate] | -0.989
16 | Cc1cc(C)c2c(c1)[C@@H](N(Cc1cc(C(F)(F)F)cc(C(F)(F)F)c1)c1nnn(C)n1)CCCN2C[C@H]1CC[C@H](C(=O)O)CC1 | -0.279
17 | CNC(=O)c1ccccc1Nc1nc(Nc2ccc(N3CCOCC3)cc2OC)ncc1Cl | -1.03
18 | CC1=C(C(=O)Nc2cc3cn[nH]c3cc2F)C(c2ccc(C(F)(F)F)cc2)CC(=O)N1 (stereo not drawn) | 0.515
19 | CCCCN(Cc1ccc(C(=O)NO)cc1)C(=O)Nc1ccccc1 [Nexturastat A] | -1.11
20 | COC(=O)N[C@H](C(=O)N1CCC[C@H]1c1ncc(-c2ccc(-c3ccc(-c4cnc([C@@H]5CCCN5C(=O)[C@@H](NC(=O)OC)C(C)C)[nH]4)cc3)cc2)[nH]1)C(C)C | 0.266
21 | CCOc1cc(CC(=O)N[C@@H](CC(C)C)c2ccccc2N2CCCCC2)ccc1C(=O)O [Repaglinide] | 0.237
22 | O=C(O)C(Cc1c[nH]c2ccccc12)N1C(=O)c2ccccc2C1=O (stereo not drawn) | -0.349
23 | CCOC(=O)C1=C(C)NC(C)=C(C(=O)OCC)C1c1ccccc1/C=C/C(=O)OC(C)(C)C [Lacidipine] | -0.357
24 | COc1ccc(C(=O)CC(=O)c2ccc(C(C)(C)C)cc2)cc1 [Avobenzone] | 0.0422

Row | SMILES | miR-132-3p level in NGN2-iNs
25 | NC1CC1c1ccc(-c2cccc(O)c2)cc1 (stereo not drawn) | 0.493
26 | CC(C)NCC(O)c1ccc(O)c(O)c1 (stereo not drawn) [Isoprenaline HCl] | 0.362
27 | CS(=O)(=O)N1CCN(Cc2cc3nc(-c4cccc5[nH]ncc45)nc(N4CCOCC4)c3s2)CC1 [Pictilisib (GDC-0941)] | -0.134
28 | Nc1nc2c(ncn2COCCO)c(=O)[nH]1 [Aciclovir] | -0.155
29 | COC(=O)C1=C(C)NC(C)=C(C(=O)OC2CCCN(Cc3ccccc3)C2)C1c1cccc([N+](=O)[O-])c1 (stereo not drawn) [Benidipine HCl] | -1.03
30 | CCNC(=O)CCC/C=C\C[C@@H]1[C@@H](/C=C/[C@@H](O)CCc2ccccc2)[C@H](O)C[C@@H]1O [Bimatoprost] | 0.665
31 | COc1ccc(S(=O)(=O)Nc2cccnc2Nc2ccc(O)cc2)cc1 | -2.85
32 | O=C(Nc1cc2cc[nH]c2cn1)c1ccccc1 | -0.97
33 | O=C1NCCc2[nH]c(-c3ccncc3)cc21 | -0.744
34 | O=C(/C=C/c1ccc(O)c(O)c1)c1ccc(O)cc1O [Butein] | 0.21
35 | O=C(CCCCCCC(=O)Nc1ccccc1)NO [Vorinostat (SAHA, MK0683)] | -0.154
36 | Nc1nonc1C(=Nc1ccc(F)c(Cl)c1)NO | -0.38
37 | NCCCCCNCC12CC3CC(CC(C3)C1)C2 | 0.348
38 | CC1(C)O[C@@H]2C[C@H]3[C@@H]4CCC5=CC(=O)C=C[C@]5(C)[C@H]4[C@@H](O)C[C@]3(C)[C@]2(C(=O)CO)O1 [Desonide] | 0.673
39 | O=C(O)c1ccc2c(c1)nc(Nc1cccc(Cl)c1)c1ccncc12 [Silmitasertib (CX-4945)] | 0.492
40 | O=C1CC(=O)c2c(Cl)c(Cl)c(Cl)c(Cl)c21 | -0.272
41 | COc1cc2/c(=N/c3ccc(Br)cc3F)nc[nH]c2cc1OCC1CCN(C)CC1 [Vandetanib (ZD6474)] | -0.307
42 | CCN(CC)C(=S)SSC(=S)N(CC)CC [Disulfiram] | 1.58
43 | C=C[C@@]1(C)CC(=O)[C@]2(O)[C@@]3(C)[C@@H](O)CCC(C)(C)[C@@H]3[C@H](O)[C@H](OC(C)=O)[C@@]2(C)O1 [Forskolin] | 2.54 ± 0.88
44 | O=C(CCCCCN1C(=O)c2cccc3cccc(c23)C1=O)NO [Scriptaid] | 1.36
45 | CCOC(=O)n1ccn(C)c1=S [Carbimazole] | 0.528
46 | COc1cc(O)c2c(c1)C(=O)c1cc(C)cc(O)c1C2=O [Rheochrysidin] | -0.11
47 | Cc1cc(NS(=O)(=O)c2ccc(N)cc2)no1 [Sulfamethoxazole] | -0.412
48 | CC1(C)S[C@@H]2[C@H](NC(=O)[C@H](C(=O)O)c3ccsc3)C(=O)N2[C@H]1C(=O)O [Ticarcillin sodium] | -1.21
